Experimental findings from the supplement of paper PMC12819154, “High-throughput peptide-centric local stability assay extends protein–ligand identification to membrane proteins, tissues and bacteria” (Nature Structural & Molecular Biology, 2025) are described below.

By UniProt entry, the sequences of proteins in these tests, tags left out. Where a name states a change or a piece, a line headed by the entry shows the natural chain unless it says otherwise.
UniProt Q9NWZ8: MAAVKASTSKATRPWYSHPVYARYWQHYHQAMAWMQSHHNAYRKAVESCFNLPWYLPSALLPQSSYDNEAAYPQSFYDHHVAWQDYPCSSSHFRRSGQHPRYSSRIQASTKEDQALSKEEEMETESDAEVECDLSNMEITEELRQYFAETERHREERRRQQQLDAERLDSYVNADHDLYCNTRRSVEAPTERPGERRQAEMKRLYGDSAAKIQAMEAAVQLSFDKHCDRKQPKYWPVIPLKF
UniProt Q9NVR7: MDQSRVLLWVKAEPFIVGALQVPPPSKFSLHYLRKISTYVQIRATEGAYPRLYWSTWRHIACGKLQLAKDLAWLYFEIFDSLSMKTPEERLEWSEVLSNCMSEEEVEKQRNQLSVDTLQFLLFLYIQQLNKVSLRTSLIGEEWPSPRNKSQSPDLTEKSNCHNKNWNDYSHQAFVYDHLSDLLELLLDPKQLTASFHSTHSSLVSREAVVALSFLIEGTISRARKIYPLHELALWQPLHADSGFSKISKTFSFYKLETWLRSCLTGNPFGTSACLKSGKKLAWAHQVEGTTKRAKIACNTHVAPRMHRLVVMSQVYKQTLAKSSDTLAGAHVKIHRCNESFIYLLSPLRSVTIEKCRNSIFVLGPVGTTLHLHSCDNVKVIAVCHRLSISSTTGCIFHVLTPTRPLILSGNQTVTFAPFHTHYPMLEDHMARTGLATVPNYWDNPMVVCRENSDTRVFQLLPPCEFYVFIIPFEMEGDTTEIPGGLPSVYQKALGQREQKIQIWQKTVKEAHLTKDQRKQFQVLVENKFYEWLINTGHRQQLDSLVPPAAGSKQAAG
UniProt Q9NVG8: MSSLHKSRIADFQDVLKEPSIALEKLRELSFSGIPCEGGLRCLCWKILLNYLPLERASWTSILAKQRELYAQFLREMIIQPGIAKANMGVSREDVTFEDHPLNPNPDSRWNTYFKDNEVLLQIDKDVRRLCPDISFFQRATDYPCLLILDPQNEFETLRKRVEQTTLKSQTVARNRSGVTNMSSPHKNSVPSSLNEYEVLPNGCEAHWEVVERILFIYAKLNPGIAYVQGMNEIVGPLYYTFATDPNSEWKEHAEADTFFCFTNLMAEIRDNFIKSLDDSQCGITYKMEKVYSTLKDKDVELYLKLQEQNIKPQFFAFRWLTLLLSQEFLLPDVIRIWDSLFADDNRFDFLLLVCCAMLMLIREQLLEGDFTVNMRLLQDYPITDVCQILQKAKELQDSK
UniProt Q9NQS7, whole entry: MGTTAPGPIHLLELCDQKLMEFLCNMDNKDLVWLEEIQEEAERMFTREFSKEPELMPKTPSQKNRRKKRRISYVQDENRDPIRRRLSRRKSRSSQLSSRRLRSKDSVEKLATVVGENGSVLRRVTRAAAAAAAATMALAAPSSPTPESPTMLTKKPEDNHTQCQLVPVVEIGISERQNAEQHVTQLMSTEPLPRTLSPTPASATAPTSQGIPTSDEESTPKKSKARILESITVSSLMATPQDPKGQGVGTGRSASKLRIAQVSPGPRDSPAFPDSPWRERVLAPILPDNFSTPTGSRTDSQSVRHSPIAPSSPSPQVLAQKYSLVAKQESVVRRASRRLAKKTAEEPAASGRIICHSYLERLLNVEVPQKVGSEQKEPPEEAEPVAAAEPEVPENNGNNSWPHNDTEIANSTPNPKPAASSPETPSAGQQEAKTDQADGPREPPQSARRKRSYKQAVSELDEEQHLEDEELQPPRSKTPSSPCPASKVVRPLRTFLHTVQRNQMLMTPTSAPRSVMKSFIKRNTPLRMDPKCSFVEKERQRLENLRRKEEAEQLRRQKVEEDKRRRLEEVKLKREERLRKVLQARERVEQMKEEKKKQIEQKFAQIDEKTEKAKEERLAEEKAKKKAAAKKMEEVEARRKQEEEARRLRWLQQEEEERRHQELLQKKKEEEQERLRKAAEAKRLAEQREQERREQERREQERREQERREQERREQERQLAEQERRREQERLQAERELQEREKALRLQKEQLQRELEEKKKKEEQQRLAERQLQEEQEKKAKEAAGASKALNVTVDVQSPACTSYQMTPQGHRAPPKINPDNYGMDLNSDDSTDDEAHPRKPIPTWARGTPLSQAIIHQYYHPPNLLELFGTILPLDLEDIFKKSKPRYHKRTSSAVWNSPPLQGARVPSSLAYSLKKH
UniProt Q9NW81: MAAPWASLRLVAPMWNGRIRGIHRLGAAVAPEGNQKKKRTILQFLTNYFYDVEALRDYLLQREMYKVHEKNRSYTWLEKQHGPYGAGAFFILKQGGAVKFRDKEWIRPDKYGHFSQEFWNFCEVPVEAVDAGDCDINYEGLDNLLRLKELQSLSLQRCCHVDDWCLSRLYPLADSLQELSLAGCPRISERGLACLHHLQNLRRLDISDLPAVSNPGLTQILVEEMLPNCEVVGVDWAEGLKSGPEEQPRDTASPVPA
UniProt Q9NXX6: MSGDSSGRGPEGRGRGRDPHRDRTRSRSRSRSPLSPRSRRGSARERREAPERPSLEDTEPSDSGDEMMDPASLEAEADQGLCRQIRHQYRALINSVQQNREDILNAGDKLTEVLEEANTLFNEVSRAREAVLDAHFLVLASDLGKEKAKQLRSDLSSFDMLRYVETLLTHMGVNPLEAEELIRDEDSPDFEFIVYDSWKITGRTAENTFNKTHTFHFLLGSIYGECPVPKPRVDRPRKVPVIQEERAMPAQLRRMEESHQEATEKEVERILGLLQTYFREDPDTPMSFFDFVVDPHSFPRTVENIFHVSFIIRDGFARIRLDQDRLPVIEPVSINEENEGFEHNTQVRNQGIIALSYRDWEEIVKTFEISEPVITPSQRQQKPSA
UniProt Q9NVZ3: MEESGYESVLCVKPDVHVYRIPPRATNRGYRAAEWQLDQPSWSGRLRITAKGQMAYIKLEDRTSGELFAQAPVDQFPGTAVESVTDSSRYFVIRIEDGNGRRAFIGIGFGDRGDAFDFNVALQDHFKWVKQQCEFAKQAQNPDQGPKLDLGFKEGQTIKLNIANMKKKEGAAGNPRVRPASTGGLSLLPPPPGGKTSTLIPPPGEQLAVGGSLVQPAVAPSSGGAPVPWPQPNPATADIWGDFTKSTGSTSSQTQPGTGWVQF
UniProt Q9NVH1: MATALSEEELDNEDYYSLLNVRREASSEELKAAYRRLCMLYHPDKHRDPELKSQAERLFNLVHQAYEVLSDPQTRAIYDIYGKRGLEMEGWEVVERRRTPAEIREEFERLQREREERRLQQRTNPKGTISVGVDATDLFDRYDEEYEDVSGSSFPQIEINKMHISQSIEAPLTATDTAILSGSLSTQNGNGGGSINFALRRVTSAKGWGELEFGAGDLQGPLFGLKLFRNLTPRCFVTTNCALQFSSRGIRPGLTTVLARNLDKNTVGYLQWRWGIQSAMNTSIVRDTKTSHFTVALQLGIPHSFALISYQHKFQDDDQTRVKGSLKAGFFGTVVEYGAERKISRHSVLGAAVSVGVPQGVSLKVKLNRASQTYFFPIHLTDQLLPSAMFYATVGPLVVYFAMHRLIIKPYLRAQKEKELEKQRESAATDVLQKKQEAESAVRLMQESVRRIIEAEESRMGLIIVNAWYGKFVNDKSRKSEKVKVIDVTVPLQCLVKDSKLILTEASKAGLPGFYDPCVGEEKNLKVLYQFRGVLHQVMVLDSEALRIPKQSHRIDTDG

The list shows a part of the results. Most values lie at the level of the controls, where differences are scatter.

Compound in the assay: CN[C@@H]1C[C@H]2O[C@@](C)([C@@H]1OC)n1c3ccccc3c3c4c(c5c6ccccc6n2c5c31)C(=O)NC4 [staurosporine]
The assay can be described thus: log2 fold change of tryptic peptide abundance, ligand vs vehicle (limited proteolysis) (log2 ratio); higher = more trypsin-susceptible (destabilized). Conditions: ligand concentration: 20 uM; sample: K562 cleared lysate; digestion: 4 min, 22 C (HT-PELSA RT4min, Orbitrap Astral).
As to “GEMIN8 (peptide sequence: LDSYVNADHDLYCNTR, peptide start residue: 168) (UniProt Q9NWZ8)”, the log2 fold change was -0.159.

Regarding “TBCCD1 (peptide sequence: IACNTHVAPR, peptide start residue: 296) (UniProt Q9NVR7)”, the log2 fold change is -0.236.

As to “TBC1D13 (peptide sequence: SGVTNMSSPHK, peptide start residue: 177) (UniProt Q9NVG8)”, the log2 fold change is 0.253.

For the target “INCENP (peptide sequence: LLNVEVPQK, peptide start residue: 362) (UniProt Q9NQS7)”, the log2 fold change was -0.314.

In the case of “UniProt Q9NW81 (peptide sequence: LGAAVAPEGNQK, peptide start residue: 25)”, the log2 fold change worked out at 0.052.

Regarding “NSMCE4A (peptide sequence: TFEISEPVITPSQR, peptide start residue: 366) (UniProt Q9NXX6)”, the log2 fold change was -0.278.

Take “NECAP2 (peptide sequence: QAQNPDQGPKLDLGFK, peptide start residue: 138) (UniProt Q9NVZ3)”: the log2 fold change was -0.252.

As to “DNAJC11 (peptide sequence: HSVLGAAVSVGVPQGVSLK, peptide start residue: 346) (UniProt Q9NVH1)”, the log2 fold change was -0.488.
